In doi:10.1101/2023.06.09.544244:
These are yes or no findings as the source states them, for the method shown. Some entries that bind do so weakly or less than the wild type.

The chains behind the UniProt entries cited, without tags or fusion partners. Where a name states a change or a piece, a line headed by the entry shows the natural chain unless it says otherwise.
UniProt P06223, whole entry, looked up, stated change not applied: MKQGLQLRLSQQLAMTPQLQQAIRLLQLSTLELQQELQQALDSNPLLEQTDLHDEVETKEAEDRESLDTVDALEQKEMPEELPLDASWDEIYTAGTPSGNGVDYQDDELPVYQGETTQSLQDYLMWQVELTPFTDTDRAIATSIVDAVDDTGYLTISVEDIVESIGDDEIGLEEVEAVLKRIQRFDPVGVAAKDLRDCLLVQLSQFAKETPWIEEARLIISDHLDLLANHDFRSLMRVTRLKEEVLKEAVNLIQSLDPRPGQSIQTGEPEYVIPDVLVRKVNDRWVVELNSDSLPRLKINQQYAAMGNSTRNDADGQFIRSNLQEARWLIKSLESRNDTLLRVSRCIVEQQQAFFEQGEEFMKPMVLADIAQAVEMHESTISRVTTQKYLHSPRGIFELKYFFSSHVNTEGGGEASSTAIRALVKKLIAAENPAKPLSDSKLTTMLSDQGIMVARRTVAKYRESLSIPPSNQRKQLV

Columns and labels:
RNAP β' subunit = RNAP β' subunit (UniProt P0A8T7); assay: cryo-EM structure
RNAP β subunit = RNAP β subunit (UniProt P0A8V2); assay: cryo-EM structure

Substance: σ^54 R336A bypass mutant (from UniProt P06223 1-477)
- binding (RNAP β' subunit): binds
- binding (RNAP β subunit): binds
